Measured values published in patent US20060275505A1, “Method and composition for increasing the alkalinity of the body” (priority 2005, published 2006).
For at least one compound, name, drawing or mass did not settle the structure.

Test system: acid reflux
Experiment: Example 13 case study, acid reflux
Format: in vivo, human
Details: patient history
Text: A person had suffered from acid reflux for two years. The reflux was severe enough to wake them once or twice every night, and they slept in an inclined bed. […] The patient drank a small glass of water with Alka Vita each night.

CNC(=C[N+](=O)[O-])NCCSCc1ccc(CN(C)C)o1 [Zantac]
relief of acid reflux by drugs tried before: no relief
